Values from PubChem BioAssay AID743458 (Peter MacCallum Cancer Centre, 2014)
Here is an unselected part of about 1,800 reagents tested. 732 of them (41%) count as active. 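Calls are per siRNA reagent; a gene was deemed confirmed only if most of its four siRNAs scored.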 The numbers tell different reagents against one gene apart. No sequences are given here.

- Aim: 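Find knock-downs that make vorinostat-resistant colon cancer cells sensitive again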 (follow-up of hits)
- System: human HCT116-VR colon cancer cells made resistant to vorinostat
- Reagents: single siRNA or pool against human genes, 25 nM per single siRNA
- Time to read-out: about 72 h after transfection, including 24 h of drug
- Treatment: vorinostat, 2.5 µM final, for 24 h
- Measurement: 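Live-cell fluorescent viability and luminescent caspase 3/7 activity after vorinostat treatment, background subtracted, mean of duplicate plates, as fold change over mock-transfected wells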
- Reading the numbers: viability relative to mock: higher = more living cells than mock; caspase activity relative to mock: higher = more apoptosis than mock
- Rule for the call: 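Active means a reduced-viability or caspase-activation class, anything else inactive; classes could only be given to wells that looked healthy when left untreated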

| target | reagent | viability relative to mock | caspase activity relative to mock | viability hit class | caspase hit class | Call |
| --- | --- | --- | --- | --- | --- | --- |
| GPRIN3 | 1 | 0.32 | 2.86 | no change | no change | inactive |
| GPRIN3 | 2 | 0.88 | 1.7 | no change | no change | inactive |
| GPRIN3 | 3 | 0.26 | 4.55 | no change | no change | inactive |
| GPRIN3 | 4 | 1.06 | 2.62 | no change | caspase activation | active |
| ALYREF | 1 | 0.63 | 5.15 | no change | caspase activation | active |
| ALYREF | 2 | 0.56 | 2.52 | reduced viability | no change | active |
| ALYREF | 3 | 0.81 | 1.31 | no change | no change | inactive |
| ALYREF | 4 | 0.72 | 1.54 | no change | no change | inactive |
| STK11 | 1 | 0.68 | 1.12 | no change | no change | inactive |
| STK11 | 2 | 0.65 | 2.86 | no change | caspase activation | active |
| STK11 | 3 | 0.6 | 2.13 | no change | no change | inactive |
| STK11 | 4 | 0.9 | 2.13 | no change | no change | inactive |
| RNF183 | 1 | 1.02 | 1.12 | no change | no change | inactive |
| RNF183 | 2 | 1 | 1.11 | no change | no change | inactive |
| RNF183 | 3 | 0.74 | 1.34 | no change | no change | inactive |
| RNF183 | 4 | 0.92 | 0.97 | no change | no change | inactive |
| TRIL | 1 | 0.82 | 1.16 | no change | no change | inactive |
| TRIL | 2 | 0.7 | 1.08 | no change | no change | inactive |
| TRIL | 3 | 0.92 | 2.63 | no change | caspase activation | active |
| TRIL | 4 | 0.62 | 1.25 | no change | no change | inactive |
| RPLP2 | 1 | 0.4 | 1.19 | reduced viability | no change | active |
| RPLP2 | 2 | 0.2 | 2.46 | no change | no change | inactive |
| RPLP2 | 3 | 0.22 | 1.54 | reduced viability | no change | active |
| RPLP2 | 4 | 0.37 | 0.86 | reduced viability | no change | active |
| SPSB3 | 1 | 0.9 | 1.01 | no change | no change | inactive |
| SPSB3 | 2 | 0.84 | 1.16 | no change | no change | inactive |
| SPSB3 | 3 | 0.36 | 0.64 | reduced viability | no change | active |
| SPSB3 | 4 | 0.92 | 2.01 | no change | no change | inactive |
| POP1 | 1 | 0.86 | 1.22 | no change | no change | inactive |
| POP1 | 2 | 0.55 | 2.54 | reduced viability | no change | active |
| POP1 | 3 | 0.78 | 1.29 | no change | no change | inactive |
| POP1 | 4 | 0.65 | 1.02 | no change | no change | inactive |
| B3GALT2 | 1 | 0.87 | 1.89 | no change | no change | inactive |
| B3GALT2 | 2 | 0.86 | 0.98 | no change | no change | inactive |
| B3GALT2 | 3 | 0.58 | 3.17 | no change | caspase activation | active |
| B3GALT2 | 4 | 0.88 | 1.48 | no change | no change | inactive |
| AKAP10 | 1 | 0.73 | 1.24 | no change | no change | inactive |
| AKAP10 | 2 | 0.92 | 1.34 | no change | no change | inactive |
| AKAP10 | 3 | 0.85 | 1.4 | no change | no change | inactive |
| AKAP10 | 4 | 0.12 | 2.24 | reduced viability | no change | active |
| NUP93 | 1 | 0.53 | 3.21 | reduced viability | caspase activation | active |
| NUP93 | 2 | 0.54 | 3.11 | reduced viability | caspase activation | active |
| NUP93 | 3 | 0.66 | 1.5 | no change | no change | inactive |
| NUP93 | 4 | 0.41 | 2.79 | reduced viability | caspase activation | active |
| SEPHS1 | 1 | 0.98 | 1.48 | no change | no change | inactive |
| SEPHS1 | 2 | 0.7 | 2.77 | no change | caspase activation | active |
| SEPHS1 | 3 | 0.61 | 4.21 | no change | caspase activation | active |
| SEPHS1 | 4 | 1.04 | 1.38 | no change | no change | inactive |
| UBC | 1 | 0.02 | 0.94 | no change | no change | inactive |
| UBC | 2 | 0.12 | 2.93 | no change | no change | inactive |
| UBC | 3 | 0.08 | 1.8 | no change | no change | inactive |
| UBC | 4 | 0.02 | 1.12 | no change | no change | inactive |
| MASP2 | 1 | 0.73 | 3.04 | no change | caspase activation | active |
| MASP2 | 2 | 0.65 | 3.84 | no change | caspase activation | active |
| MASP2 | 3 | 0.9 | 2.19 | no change | no change | inactive |
| MASP2 | 4 | 0.6 | 2.95 | no change | no change | inactive |
| ARSA | 1 | 0.94 | 2.55 | no change | no change | inactive |
| ARSA | 2 | 0.58 | 3.05 | no change | caspase activation | active |
| ARSA | 3 | 0.88 | 1.1 | no change | no change | inactive |
| ARSA | 4 | 0.23 | 3.17 | no change | no change | inactive |
